Test results from the supplement of paper PMC10849652.
Some of the results follow.

Protein sequences, listed by entry. Tags and fused reporters are not part of them. Lines headed by an entry give the natural chain unless they say otherwise; changes in a name come on top.
UniProt Q15437: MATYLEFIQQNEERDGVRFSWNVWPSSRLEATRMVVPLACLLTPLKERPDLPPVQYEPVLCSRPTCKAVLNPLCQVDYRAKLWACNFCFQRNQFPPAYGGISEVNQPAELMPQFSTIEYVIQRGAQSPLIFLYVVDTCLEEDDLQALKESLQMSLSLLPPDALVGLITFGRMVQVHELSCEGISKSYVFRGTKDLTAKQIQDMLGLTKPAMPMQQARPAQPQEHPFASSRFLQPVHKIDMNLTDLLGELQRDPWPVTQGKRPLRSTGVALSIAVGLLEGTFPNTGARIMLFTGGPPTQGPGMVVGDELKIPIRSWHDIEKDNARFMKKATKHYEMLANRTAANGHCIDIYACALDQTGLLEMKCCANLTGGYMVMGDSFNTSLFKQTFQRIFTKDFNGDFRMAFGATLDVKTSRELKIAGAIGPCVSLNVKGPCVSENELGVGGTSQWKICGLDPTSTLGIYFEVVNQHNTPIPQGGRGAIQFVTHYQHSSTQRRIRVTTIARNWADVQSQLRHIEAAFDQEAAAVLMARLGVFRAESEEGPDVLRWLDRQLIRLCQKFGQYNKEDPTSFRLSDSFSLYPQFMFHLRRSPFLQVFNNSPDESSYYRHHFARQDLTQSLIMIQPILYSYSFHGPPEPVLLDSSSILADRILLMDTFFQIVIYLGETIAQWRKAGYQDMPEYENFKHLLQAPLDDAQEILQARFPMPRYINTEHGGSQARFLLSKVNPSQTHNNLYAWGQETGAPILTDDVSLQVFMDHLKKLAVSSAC
UniProt O00422: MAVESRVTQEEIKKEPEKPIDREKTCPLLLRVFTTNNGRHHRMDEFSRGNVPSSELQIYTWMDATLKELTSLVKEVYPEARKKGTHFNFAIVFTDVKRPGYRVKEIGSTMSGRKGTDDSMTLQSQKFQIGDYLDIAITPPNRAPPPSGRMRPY
UniProt P67812: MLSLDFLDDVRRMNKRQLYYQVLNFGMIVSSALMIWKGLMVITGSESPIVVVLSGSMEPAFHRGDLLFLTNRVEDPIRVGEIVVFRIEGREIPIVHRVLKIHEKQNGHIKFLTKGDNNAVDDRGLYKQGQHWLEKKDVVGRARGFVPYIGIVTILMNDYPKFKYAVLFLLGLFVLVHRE
UniProt Q8WU76: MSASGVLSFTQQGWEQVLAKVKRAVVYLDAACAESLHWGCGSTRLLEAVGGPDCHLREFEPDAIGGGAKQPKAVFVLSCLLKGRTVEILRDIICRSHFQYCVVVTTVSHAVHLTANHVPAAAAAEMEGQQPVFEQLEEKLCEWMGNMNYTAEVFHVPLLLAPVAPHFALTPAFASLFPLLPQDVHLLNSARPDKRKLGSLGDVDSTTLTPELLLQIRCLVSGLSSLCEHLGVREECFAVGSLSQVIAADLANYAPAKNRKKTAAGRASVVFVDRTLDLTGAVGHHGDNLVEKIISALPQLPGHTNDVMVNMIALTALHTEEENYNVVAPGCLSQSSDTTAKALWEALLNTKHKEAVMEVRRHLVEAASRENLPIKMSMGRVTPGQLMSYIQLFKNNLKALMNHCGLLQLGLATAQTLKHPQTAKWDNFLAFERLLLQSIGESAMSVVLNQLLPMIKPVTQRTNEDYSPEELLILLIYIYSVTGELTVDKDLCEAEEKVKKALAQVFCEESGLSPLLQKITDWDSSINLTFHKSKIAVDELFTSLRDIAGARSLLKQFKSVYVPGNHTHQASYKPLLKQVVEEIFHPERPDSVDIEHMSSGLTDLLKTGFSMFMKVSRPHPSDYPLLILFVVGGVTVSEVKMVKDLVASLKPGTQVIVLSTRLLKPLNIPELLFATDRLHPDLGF
UniProt Q9NR31: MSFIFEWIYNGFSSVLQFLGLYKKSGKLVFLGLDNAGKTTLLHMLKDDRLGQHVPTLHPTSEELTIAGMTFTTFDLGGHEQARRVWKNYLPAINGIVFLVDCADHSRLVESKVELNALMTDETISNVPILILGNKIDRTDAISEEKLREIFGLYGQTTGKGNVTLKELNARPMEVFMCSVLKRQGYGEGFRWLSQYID
UniProt Q0VDG4: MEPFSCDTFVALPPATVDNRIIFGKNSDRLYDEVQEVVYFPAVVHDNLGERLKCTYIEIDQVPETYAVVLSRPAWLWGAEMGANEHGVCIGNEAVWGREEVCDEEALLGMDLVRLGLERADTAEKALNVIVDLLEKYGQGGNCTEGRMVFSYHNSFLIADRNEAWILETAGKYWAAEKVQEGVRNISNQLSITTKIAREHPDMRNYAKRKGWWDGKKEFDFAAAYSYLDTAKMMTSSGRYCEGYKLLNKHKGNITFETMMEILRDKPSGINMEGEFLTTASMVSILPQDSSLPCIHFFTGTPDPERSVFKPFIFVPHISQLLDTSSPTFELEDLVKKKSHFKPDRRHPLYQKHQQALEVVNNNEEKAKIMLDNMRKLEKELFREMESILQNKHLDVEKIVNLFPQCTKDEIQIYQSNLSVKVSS
UniProt O00560: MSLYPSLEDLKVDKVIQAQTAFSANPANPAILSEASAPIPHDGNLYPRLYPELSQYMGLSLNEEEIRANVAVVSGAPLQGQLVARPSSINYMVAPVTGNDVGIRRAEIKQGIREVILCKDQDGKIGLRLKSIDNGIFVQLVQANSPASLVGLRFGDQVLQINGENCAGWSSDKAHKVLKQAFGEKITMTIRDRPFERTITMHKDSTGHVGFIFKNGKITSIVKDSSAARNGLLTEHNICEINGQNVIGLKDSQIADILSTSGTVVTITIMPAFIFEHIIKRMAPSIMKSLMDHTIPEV
UniProt Q99590: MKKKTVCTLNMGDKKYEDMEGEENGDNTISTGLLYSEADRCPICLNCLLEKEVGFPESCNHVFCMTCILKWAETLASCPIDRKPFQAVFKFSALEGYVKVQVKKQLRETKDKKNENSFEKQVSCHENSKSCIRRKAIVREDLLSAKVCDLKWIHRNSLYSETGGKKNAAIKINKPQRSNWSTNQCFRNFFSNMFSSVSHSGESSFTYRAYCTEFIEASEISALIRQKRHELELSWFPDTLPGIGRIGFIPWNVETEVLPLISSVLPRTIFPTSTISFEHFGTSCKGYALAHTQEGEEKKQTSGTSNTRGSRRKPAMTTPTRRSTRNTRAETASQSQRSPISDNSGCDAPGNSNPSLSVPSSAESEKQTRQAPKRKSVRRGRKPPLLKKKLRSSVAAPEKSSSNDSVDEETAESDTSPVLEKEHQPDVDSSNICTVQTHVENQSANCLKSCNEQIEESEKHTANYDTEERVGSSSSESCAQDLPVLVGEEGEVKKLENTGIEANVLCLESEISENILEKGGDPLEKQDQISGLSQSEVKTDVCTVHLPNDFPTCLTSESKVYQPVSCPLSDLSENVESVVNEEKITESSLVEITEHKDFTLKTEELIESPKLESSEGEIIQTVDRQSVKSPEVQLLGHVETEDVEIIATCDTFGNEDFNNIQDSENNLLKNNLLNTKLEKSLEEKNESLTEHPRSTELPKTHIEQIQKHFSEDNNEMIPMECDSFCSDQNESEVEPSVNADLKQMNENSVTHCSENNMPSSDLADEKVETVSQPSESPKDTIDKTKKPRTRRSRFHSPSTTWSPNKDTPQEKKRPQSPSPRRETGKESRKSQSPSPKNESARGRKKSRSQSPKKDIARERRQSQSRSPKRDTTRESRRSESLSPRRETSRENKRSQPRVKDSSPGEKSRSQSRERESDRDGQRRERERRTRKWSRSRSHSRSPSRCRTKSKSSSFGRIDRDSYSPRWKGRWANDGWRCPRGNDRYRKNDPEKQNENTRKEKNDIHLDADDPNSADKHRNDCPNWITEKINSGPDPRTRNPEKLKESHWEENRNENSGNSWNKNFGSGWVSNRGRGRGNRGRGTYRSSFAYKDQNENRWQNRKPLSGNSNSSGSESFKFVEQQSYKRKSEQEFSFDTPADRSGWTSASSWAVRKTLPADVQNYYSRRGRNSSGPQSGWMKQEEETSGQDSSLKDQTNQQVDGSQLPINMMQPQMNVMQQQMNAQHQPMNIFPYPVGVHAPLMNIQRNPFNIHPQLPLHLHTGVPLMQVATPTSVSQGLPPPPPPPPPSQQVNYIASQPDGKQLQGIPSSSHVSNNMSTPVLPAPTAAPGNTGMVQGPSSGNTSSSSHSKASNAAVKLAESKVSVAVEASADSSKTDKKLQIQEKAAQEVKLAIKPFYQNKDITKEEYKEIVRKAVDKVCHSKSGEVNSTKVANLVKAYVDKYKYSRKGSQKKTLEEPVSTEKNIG
UniProt O14828: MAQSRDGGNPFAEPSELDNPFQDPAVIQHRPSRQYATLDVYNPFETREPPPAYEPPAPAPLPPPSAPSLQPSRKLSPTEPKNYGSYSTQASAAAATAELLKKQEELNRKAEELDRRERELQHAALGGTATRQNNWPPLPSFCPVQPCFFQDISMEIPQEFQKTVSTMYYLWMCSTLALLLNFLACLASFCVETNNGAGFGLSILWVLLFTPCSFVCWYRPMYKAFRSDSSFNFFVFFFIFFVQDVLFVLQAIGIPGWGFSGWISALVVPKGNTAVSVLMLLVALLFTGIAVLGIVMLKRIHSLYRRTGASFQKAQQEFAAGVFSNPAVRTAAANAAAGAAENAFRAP
UniProt Q9GZR1: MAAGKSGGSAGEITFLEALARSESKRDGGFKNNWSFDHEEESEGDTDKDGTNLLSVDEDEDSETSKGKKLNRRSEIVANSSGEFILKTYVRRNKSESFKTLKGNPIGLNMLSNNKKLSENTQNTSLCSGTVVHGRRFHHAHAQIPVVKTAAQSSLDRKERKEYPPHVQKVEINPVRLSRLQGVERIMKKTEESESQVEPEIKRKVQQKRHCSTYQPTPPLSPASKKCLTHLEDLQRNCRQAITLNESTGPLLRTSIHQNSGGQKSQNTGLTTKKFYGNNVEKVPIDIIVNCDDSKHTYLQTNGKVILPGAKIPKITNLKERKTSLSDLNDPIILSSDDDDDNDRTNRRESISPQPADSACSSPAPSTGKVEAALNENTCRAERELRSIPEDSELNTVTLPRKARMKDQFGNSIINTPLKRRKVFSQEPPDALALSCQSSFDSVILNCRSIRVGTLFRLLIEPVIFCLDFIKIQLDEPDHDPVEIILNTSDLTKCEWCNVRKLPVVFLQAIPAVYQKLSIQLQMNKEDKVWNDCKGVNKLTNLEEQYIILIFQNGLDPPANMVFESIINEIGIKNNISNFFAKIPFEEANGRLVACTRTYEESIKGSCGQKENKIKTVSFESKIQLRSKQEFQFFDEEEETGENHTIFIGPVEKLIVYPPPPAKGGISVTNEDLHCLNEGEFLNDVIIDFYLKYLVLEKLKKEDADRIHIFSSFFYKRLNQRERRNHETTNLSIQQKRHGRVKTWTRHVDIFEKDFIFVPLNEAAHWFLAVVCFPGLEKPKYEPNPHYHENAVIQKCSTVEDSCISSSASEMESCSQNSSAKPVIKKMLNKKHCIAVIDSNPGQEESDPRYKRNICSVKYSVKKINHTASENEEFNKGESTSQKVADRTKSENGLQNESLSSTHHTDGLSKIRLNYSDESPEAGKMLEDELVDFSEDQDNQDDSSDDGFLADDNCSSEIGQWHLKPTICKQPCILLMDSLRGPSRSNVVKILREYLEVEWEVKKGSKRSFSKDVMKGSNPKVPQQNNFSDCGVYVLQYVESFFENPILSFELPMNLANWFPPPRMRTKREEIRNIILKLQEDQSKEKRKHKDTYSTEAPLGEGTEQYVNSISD
UniProt Q15019: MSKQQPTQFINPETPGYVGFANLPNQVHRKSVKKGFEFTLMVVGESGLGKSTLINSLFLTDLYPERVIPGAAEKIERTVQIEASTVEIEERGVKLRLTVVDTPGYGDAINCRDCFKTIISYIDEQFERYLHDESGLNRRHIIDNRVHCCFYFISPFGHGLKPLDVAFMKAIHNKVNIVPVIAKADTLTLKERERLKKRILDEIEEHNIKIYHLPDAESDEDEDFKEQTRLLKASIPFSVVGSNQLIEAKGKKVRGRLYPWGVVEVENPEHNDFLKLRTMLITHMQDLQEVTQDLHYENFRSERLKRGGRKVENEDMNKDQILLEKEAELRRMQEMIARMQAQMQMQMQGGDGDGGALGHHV
UniProt Q96I15: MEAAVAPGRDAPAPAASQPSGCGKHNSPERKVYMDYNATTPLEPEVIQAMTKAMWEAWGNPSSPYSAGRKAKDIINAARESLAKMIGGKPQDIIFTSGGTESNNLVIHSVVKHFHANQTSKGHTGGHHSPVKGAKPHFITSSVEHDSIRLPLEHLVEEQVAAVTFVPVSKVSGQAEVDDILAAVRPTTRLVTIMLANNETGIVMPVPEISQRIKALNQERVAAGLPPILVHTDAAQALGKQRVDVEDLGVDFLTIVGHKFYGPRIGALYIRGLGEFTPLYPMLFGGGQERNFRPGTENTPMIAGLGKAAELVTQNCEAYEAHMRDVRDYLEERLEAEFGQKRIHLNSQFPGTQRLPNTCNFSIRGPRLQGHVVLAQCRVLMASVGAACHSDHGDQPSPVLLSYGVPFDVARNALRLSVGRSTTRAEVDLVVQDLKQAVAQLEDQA

Key:
Experiment in all cases: log2 fold change, soluble protein after heating vs DMSO (PISA); higher = thermal stabilisation; K562 lysate, 10 uM; active = over 0.2 and 3.5 SD of the protein, either way, in both replicates (recomputed)
vemurafenib = compound: CCCS(=O)(=O)Nc1ccc(F)c(C(=O)c2c[nH]c3ncc(-c4ccc(Cl)cc4)cc23)c1F [vemurafenib]
Summary of the method: (§1)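 A 30 min treatment with 10 μM compound was applied to crude K562 extract at 1 mg/mL protein in PBS pH 7.4 with 1 mM MgCl2. Heating for 3 min spanned 48°C-58°C, after which aliquots were pooled, adjusted to 0.5% NP-40 at 4°C and spun at 21,000xg for 90 min. TMTpro 16plex LC-MS/MS of the supernatant, with channel sums equalised, gave values recorded as log-two fold change in thermal stability against solvent controls, from duplicates.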

[1] = compound: CCCS(=O)(=O)Nc1ccc(F)c(C(=O)c2c[nH]c3ncc(Cl)cc23)c1F
Summary of the method: as §1

barasertib = compound: CCN(CCCOc1ccc2c(Nc3cc(CC(=O)Nc4cccc(F)c4)[nH]n3)ncnc2c1)CCOP(=O)(O)O [barasertib]
Summary of the method: as §1

[2] = compound: CC[C@@H]1C(=O)N(C)c2cnc(Nc3ccc(C(=O)NC4CCN(C)CC4)cc3OC)nc2N1C1CCCC1
Summary of the method: as §1

volasertib = compound: CC[C@@H]1C(=O)N(C)c2cnc(Nc3ccc(C(=O)N[C@H]4CC[C@H](N5CCN(CC6CC6)CC5)CC4)cc3OC)nc2N1C(C)C [volasertib]
Summary of the method: as §1

[3] = compound: CCn1c(C(=O)N(C2CC2)C2CC2)cc2c3c(ncn3C)c(Nc3cc(C)n(C)n3)nc21
Summary of the method: as §1

[4] = compound: CCn1cc(-c2ccnc3[nH]c(-c4cccc(CN(C)C)c4)cc23)c(-c2ccc(NC(=O)N(C)C)cc2)n1
Summary of the method: as §1

[5] = compound: CN1CCC(CNc2ccc3ncc(-c4cccc(OC(F)(F)F)c4)n3n2)CC1
Summary of the method: as §1

saracatinib = compound: CN1CCN(CCOc2cc(OC3CCOCC3)c3c(Nc4c(Cl)ccc5c4OCO5)ncnc3c2)CC1 [saracatinib]
Summary of the method: as §1

sotrastaurin = compound: CN1CCN(c2nc(C3=C(c4c[nH]c5ccccc45)C(=O)NC3=O)c3ccccc3n2)CC1 [sotrastaurin]
Summary of the method: as §1

alvocidib = compound: CN1CC[C@H](c2c(O)cc(O)c3c(=O)cc(-c4ccccc4Cl)oc23)[C@H](O)C1 [alvocidib]
Summary of the method: as §1

Tubastatin A = compound: CN1CCc2c(c3ccccc3n2Cc2ccc(C(=O)NO)cc2)C1 [Tubastatin A]
Summary of the method: as §1

[6] = compound: CNC(=O)C1=CC=CC=C1NC2=NC(=NC=C2Cl)NC3=C(C=C(C=C3)N4CCOCC4)OC
Summary of the method: as §1

defactinib = compound: CNC(=O)c1ccc(Nc2ncc(C(F)(F)F)c(NCc3nccnc3N(C)S(C)(=O)=O)n2)cc1 [defactinib]
Summary of the method: as §1

[7] = compound: CNc1nc(-c2ccc3c(N)n[nH]c3c2)cc(N2C[C@@H](C(=O)NC3CCCCC3)CC[C@H]2C)n1
Summary of the method: as §1

encorafenib = compound: COC(=O)N[C@@H](C)CNc1nccc(-c2cn(C(C)C)nc2-c2cc(Cl)cc(NS(C)(=O)=O)c2F)n1 [encorafenib]
Summary of the method: as §1

[8] = compound: COC(=O)[C@H](CCSC)NC(=O)C1=C(C=C(C=C1)NC[C@H](CS)N)C2=CC=CC=C2
Summary of the method: as §1

alisertib = compound: COc1cc(Nc2ncc3c(n2)-c2ccc(Cl)cc2C(c2c(F)cccc2OC)=NC3)ccc1C(=O)O [alisertib]
Summary of the method: as §1

[9] = compound: COc1cc2nc(-c3cc(F)ccc3O)nc(N[C@@H]3CNC[C@H]3C(C)(C)O)c2cc1OC
Summary of the method: as §1

gefitinib = compound: COc1cc2ncnc(Nc3ccc(F)c(Cl)c3)c2cc1OCCCN1CCOCC1 [gefitinib]
Summary of the method: as §1

Measured: log2 fold change

SEC23B (UniProt Q15437)
inactive: vemurafenib -0.016 | [1] 0.023 | barasertib 0 | [2] -0.008 | volasertib -0.005 | [3] 0.003 | [4] -0.017 | [5] 0 | saracatinib 0.019 | sotrastaurin -0.009 | alvocidib 0.013 | Tubastatin A 0.004 | [6] 0.012 | defactinib -0.009 | [7] -0.01 | encorafenib -0.023 | [8] 0.007 | alisertib 0.01 | [9] 0.003 | gefitinib -0.03

SAP18 isoform 2 (UniProt O00422)
inactive: vemurafenib -0.008 | [1] 0.036 | barasertib 0.048 | [2] -0.018 | volasertib 0.013 | [3] -0.007 | [4] 0.001 | [5] 0.006 | saracatinib 0 | sotrastaurin -0.018 | alvocidib 0.016 | Tubastatin A 0.064 | [6] -0.003 | defactinib -0.002 | [7] 0.089 | encorafenib 0.033 | [8] 0.06 | alisertib 0.032 | [9] -0.016 | gefitinib 0.032

SEC11A (UniProt P67812)
inactive: vemurafenib 0.016 | [1] 0.01 | barasertib 0.048 | [2] -0.018 | volasertib 0.02 | [3] -0.045 | [4] -0.025 | [5] -0.011 | saracatinib 0.036 | sotrastaurin 0.029 | alvocidib 0.025 | Tubastatin A 0.01 | [6] -0.006 | defactinib -0.031 | [7] -0.033 | encorafenib 0.016 | [8] -0.023 | alisertib 0.002 | [9] 0.018 | gefitinib 0.019

SEC31A (UniProt D6REX3)
inactive: vemurafenib -0.023 | [1] -0.002 | barasertib 0.006 | [2] -0.025 | volasertib -0.005 | [3] -0.001 | [4] -0.05 | [5] 0.024 | saracatinib -0.03 | sotrastaurin -0.02 | alvocidib 0.015 | Tubastatin A 0.046 | [6] -0.021 | defactinib 0.004 | [7] -0.048 | encorafenib -0.007 | [8] -0.023 | alisertib 0.01 | [9] -0.004 | gefitinib 0.014

SCFD2 (UniProt Q8WU76)
inactive: vemurafenib 0.012 | [1] 0.002 | barasertib -0.019 | [2] -0.021 | volasertib 0.015 | [3] 0.002 | [4] 0.026 | [5] 0.033 | saracatinib -0.003 | sotrastaurin 0.008 | alvocidib -0.067 | Tubastatin A 0.016 | [6] 0.015 | defactinib 0.005 | [7] -0.017 | encorafenib 0.075 | [8] 0.073 | alisertib -0.03 | [9] 0.022 | gefitinib -0.062

Copied from above (two entries):
SEC31A (UniProt D6REX3)
inactive: vemurafenib -0.023 | [1] -0.002 | barasertib 0.006 | [2] -0.025 | volasertib -0.005 | [3] -0.001 | [4] -0.05 | [5] 0.024 | saracatinib -0.03 | sotrastaurin -0.02 | alvocidib 0.015 | Tubastatin A 0.046 | [6] -0.021 | defactinib 0.004 | [7] -0.048 | encorafenib -0.007 | [8] -0.023 | alisertib 0.01 | [9] -0.004 | gefitinib 0.014

SCFD2 (UniProt Q8WU76)
inactive: vemurafenib 0.012 | [1] 0.002 | barasertib -0.019 | [2] -0.021 | volasertib 0.015 | [3] 0.002 | [4] 0.026 | [5] 0.033 | saracatinib -0.003 | sotrastaurin 0.008 | alvocidib -0.067 | Tubastatin A 0.016 | [6] 0.015 | defactinib 0.005 | [7] -0.017 | encorafenib 0.075 | [8] 0.073 | alisertib -0.03 | [9] 0.022 | gefitinib -0.062

(list continues)

SAR1A (UniProt Q9NR31)
inactive: vemurafenib 0.109 | [1] 0 | barasertib 0.07 | [2] 0.03 | volasertib -0.05 | [3] 0.021 | [4] -0.009 | [5] -0.108 | saracatinib 0.025 | sotrastaurin 0.084 | alvocidib -0.034 | Tubastatin A 0.153 | [6] 0.03 | defactinib 0.086 | [7] 0.086 | encorafenib 0.152 | [8] 0.084 | alisertib 0.134 | [9] 0.161 | gefitinib 0.156

SCRN3 (UniProt Q0VDG4)
inactive: vemurafenib -0.009 | [1] 0.02 | barasertib -0.018 | [2] 0.023 | volasertib -0.012 | [3] -0.017 | [4] 0.011 | [5] -0.03 | saracatinib -0.007 | sotrastaurin 0.004 | alvocidib -0.003 | Tubastatin A 0.011 | [6] 0.047 | defactinib -0.001 | [7] 0.009 | encorafenib -0.044 | [8] -0.009 | alisertib -0.036 | [9] -0.012 | gefitinib 0.016

SDCBP (UniProt O00560)
inactive: vemurafenib 0.017 | [1] 0.01 | barasertib 0.061 | [2] -0.041 | volasertib 0.007 | [3] -0.027 | [4] -0.023 | [5] 0.016 | saracatinib -0.011 | sotrastaurin -0.027 | alvocidib 0.001 | Tubastatin A 0.054 | [6] 0.012 | defactinib -0.044 | [7] 0.068 | encorafenib 0.004 | [8] -0.049 | alisertib 0.016 | [9] -0.003 | gefitinib -0.126

SEPSECS (UniProt Q9HD40)
inactive: vemurafenib 0.024 | [1] -0.004 | barasertib -0.062 | [2] 0.009 | volasertib 0.013 | [3] -0.018 | [4] 0.678 | [5] 0.08 | saracatinib 0.028 | sotrastaurin -0.009 | alvocidib -0.014 | Tubastatin A 0.025 | [6] 0.041 | defactinib -0.013 | [7] -0.033 | encorafenib 0.014 | [8] -0.005 | alisertib -0.041 | [9] 0.02 | gefitinib 0.003

SCAF11 (UniProt Q99590)
inactive: vemurafenib 0.066 | [1] 0.022 | barasertib -0.03 | [2] 0.073 | volasertib 0 | [3] 0.003 | [4] -0.009 | [5] 0.007 | saracatinib 0.018 | sotrastaurin -0.006 | alvocidib -0.062 | Tubastatin A 0.032 | [6] 0.04 | defactinib 0.119 | [7] -0.008 | encorafenib 0.026 | [8] -0.009 | alisertib -0.036 | [9] -0.008 | gefitinib 0.062

SCAMP3 (UniProt O14828)
inactive: vemurafenib -0.018 | [1] -0.017 | barasertib 0.033 | [2] 0.033 | volasertib 0.003 | [3] 0.016 | [4] 0.006 | [5] -0.023 | saracatinib -0.011 | sotrastaurin -0.019 | alvocidib -0.021 | Tubastatin A 0.034 | [6] 0.027 | defactinib -0.024 | [7] -0.032 | encorafenib 0.011 | [8] -0.042 | alisertib -0.026 | [9] -0.017 | gefitinib 0.04

SEC24B isoform 3 (UniProt O95487)
inactive: vemurafenib 0.028 | [1] 0.044 | barasertib 0.051 | [2] 0.03 | volasertib -0.044 | [3] 0.036 | [4] 0.216 | [5] -0.079 | saracatinib 0.037 | sotrastaurin 0.037 | alvocidib 0.071 | Tubastatin A -0.032 | [6] 0.044 | defactinib 0.026 | [7] 0.006 | encorafenib 0.058 | [8] -0.011 | alisertib -0.02 | [9] 0.024 | gefitinib -0.016

SCAMP3 isoform 2 (UniProt O14828)
inactive: vemurafenib -0.02 | [1] -0.086 | barasertib -0.256 | [2] 0.135 | volasertib 0.001 | [3] 0.035 | [4] 0.005 | [5] -0.006 | saracatinib 0.008 | sotrastaurin 0.016 | alvocidib -0.151 | Tubastatin A -0.117 | [6] -0.083 | defactinib 0.006 | [7] 0.136 | encorafenib -0.017 | [8] 0.041 | alisertib 0.025 | [9] -0.115 | gefitinib -0.052

SENP6 (UniProt Q9GZR1)
inactive: vemurafenib 0.063 | [1] -0.01 | barasertib 0.007 | [2] 0.04 | volasertib -0.065 | [3] -0.044 | [4] -0.038 | [5] 0.016 | saracatinib 0.028 | sotrastaurin -0.006 | alvocidib -0.069 | Tubastatin A -0.003 | [6] 0 | defactinib -0.154 | [7] -0.006 | encorafenib -0.014 | [8] 0.013 | alisertib -0.093 | [9] -0.059 | gefitinib 0.087

SEPTIN2 isoform 2 (UniProt Q15019)
inactive: vemurafenib 0.008 | [1] -0.02 | barasertib -0.025 | [2] 0.045 | volasertib 0.007 | [3] -0.017 | [4] 0.08 | [5] 0.051 | saracatinib 0.01 | sotrastaurin 0.036 | alvocidib -0.053 | Tubastatin A 0.067 | [6] 0 | defactinib -0.026 | [7] 0.019 | encorafenib -0.015 | [8] -0.007 | alisertib 0.027 | [9] 0.016 | gefitinib -0.021

SCLY (UniProt Q96I15)
inactive: vemurafenib 0.015 | [1] 0.006 | barasertib 0.019 | [2] -0.02 | volasertib 0 | [3] -0.013 | [4] -0.005 | [5] 0.026 | saracatinib -0.02 | sotrastaurin -0.015 | alvocidib 0.004 | Tubastatin A 0.014 | [6] -0.007 | defactinib 0.027 | [7] -0.003 | encorafenib -0.022 | [8] 0.025 | alisertib -0.007 | [9] -0.005 | gefitinib -0.002
